Assay results published in article PMC6416337.

Target: GST-SOS2-JD (the junction domain) (Arabidopsis)
Assay: pull-down; GST-tagged SOS2-JD on beads, with or without prior incubation with His-tagged PKS5 in kinase buffer with ATP (30 °C, 30 min; PKS5 washed away), then His-tagged 14-3-3λ in binding buffer (2 mM DTT, 10 mM MgCl2, 20 mM Tris-HCl pH 7.2) at 4 °C for 3 h; anti-14-3-3 immunoblot; both purified

- binding: binds
B1: His-tagged 14-3-3λ (protein, UniProt P48349 1-248)
chain: MAATLGRDQYVYMAKLAEQAERYEEMVQFMEQLVTGATPAEELTVEERNLLSVAYKNVIGSLRAAWRIVSSIEQKEESRKNDEHVSLVKDYRSKVESELSSVCSGILKLLDSHLIPSAGASESKVFYLKMKGDYHRYMAEFKSGDERKTAAEDTMLAYKAAQDIAAADMAPTHPIRLGLALNFSVFYYEILNSSDKACNMAKQAFEEAIAELDTLGEESYKDSTLIMQLLRDNLTLWTSDMQEQMDEA

These are yes or no findings as the source states them, for the method shown. A result given as binding can be weak or reduced; the word gives no strength. Sequences can lack the tags named with a protein.
